Results are given in words; binding and its absence hold for the method and conditions named. Binding seen in cells or lysates may run through a third protein. Some entries that bind do so weakly or less than the wild type. For some of these results: Sequences can lack the tags named with a protein. Each block holds one binder with its values, some of them ahead of it.
Key:
[1] = molecular target: T1, MYC-TAB2 (TAK1-binding protein 2) (UniProt Q99K90); test: co-IP; BV2 cells transfected with Flag-TAK1 and/or MYC-TAB2; lysates incubated with anti-MYC antibody overnight at 4 °C; Co-IP kit (Absin Bioscience)
T1 sequence: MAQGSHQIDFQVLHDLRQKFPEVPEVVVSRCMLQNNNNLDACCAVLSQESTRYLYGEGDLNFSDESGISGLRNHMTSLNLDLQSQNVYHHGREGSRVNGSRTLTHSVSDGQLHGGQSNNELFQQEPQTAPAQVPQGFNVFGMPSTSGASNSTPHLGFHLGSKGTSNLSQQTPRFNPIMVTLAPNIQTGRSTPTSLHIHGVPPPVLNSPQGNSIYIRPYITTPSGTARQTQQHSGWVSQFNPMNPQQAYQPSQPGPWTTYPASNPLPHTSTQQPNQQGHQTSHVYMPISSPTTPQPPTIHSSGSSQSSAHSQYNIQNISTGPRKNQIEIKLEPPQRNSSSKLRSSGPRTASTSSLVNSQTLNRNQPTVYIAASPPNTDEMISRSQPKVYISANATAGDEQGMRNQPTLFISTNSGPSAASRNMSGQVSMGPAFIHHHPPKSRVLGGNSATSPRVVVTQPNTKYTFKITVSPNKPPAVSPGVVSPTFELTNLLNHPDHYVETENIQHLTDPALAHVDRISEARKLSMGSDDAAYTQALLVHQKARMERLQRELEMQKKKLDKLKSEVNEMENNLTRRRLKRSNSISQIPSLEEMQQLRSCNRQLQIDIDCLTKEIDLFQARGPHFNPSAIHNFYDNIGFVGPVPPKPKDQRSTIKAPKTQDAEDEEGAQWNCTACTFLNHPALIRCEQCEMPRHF

[2] = molecular target: T2, TGFβ-activated kinase 1 (TAK1)-binding proteins 2 (TAB2), endogenous (mouse (endogenous in microglial cells and C57BL/6J brain)) (UniProt Q99K90); test: proximity ligation; Duolink PLA on mouse brain tissue sections with anti-TAB2 and anti-TAK1; mice treated with LPS, miR-NC^KD-EVs or miR-672-5p^KD-EVs
T2 sequence: T1 sequence

[3] = molecular target: T2, TGFβ-activated kinase 1 (TAK1)-binding proteins 2 (TAB2), endogenous (mouse (endogenous in microglial cells and C57BL/6J brain)); test: co-IP; without tags: cell lysates incubated with anti-TAB2 antibody overnight at 4 °C; microglia treated with LPS, miR-NC^KD-EVs or miR-672-5p^KD-EVs
[4] = molecular target: T2, TGFβ-activated kinase 1 (TAK1)-binding proteins 2 (TAB2), endogenous (mouse (endogenous in microglial cells and C57BL/6J brain)); test: proximity ligation; Duolink PLA on fixed, permeabilised microglial cells with anti-TAB2 and anti-TAK1; cells treated with LPS, miR-NC^KD-EVs or miR-672-5p^KD-EVs

binding [1]: binds
B1: Flag-TAK1 (TGFβ-activated kinase 1) (enzyme, UniProt Q62073 1-579)
chain: MSTASAASSSSSSSASEMIEAPSQVLNFEEIDYKEIEVEEVVGRGAFGVVCKAKWRAKDVAIKQIESESERKAFIVELRQLSRVNHPNIVKLYGACLNPVCLVMEYAEGGSLYNVLHGAEPLPYYTAAHAMSWCLQCSQGVAYLHSMQPKALIHRDLKPPNLLLVAGGTVLKICDFGTACDIQTHMTNNKGSAAWMAPEVFEGSNYSEKCDVFSWGIILWEVITRRKPFDEIGGPAFRIMWAVHNGTRPPLIKNLPKPIESLMTRCWSKDPSQRPSMEEIVKIMTHLMRYFPGADEPLQYPCQYSDEGQSNSATSTGSFMDIASTNTSNKSDTNMEQVPATNDTIKRLESKLLKNQAKQQSESGRLSLGASRGSSVESLPPTSEGKRMSADMSEIEARIVATAGNGQPRRRSIQDLTVTGTEPGQVSSRSSSPSVRMITTSGPTSEKPARSHPWTPDDSTDTNGSDNSIPMAYLTLDHQLQPLAPCPNSKESMAVFEQHCKMAQEYMKVQTEIALLLQRKQELVAELDQDEKDQQNTSRLVQEHKKLLDENKSLSTYYQQCKKQLEVIRSQQQKRQGTS

binding [2]: binds | binding [3]: binds | binding [4]: binds
B2: TGFβ-activated kinase 1 (TAK1), endogenous (enzyme, UniProt Q62073 1-579)
chain: B1 chain

Source: paper PMC10541416
